Test results from patent publication US9867372B2, “Tetrazolinone compound and use of same” (SUMITOMO CHEMICAL COMPANY, LIMITED, priority 2013, dated 2018).
Some entries share one result that the patent states for a list of compounds.

Assays:
[1] = system: cucumber anthracnose fungus (Colletotrichum lagenarium); test: cucumber anthracnose control test, foliar spray before inoculation; type: in vivo; conditions: 200 ppm, sprayed one day before inoculation (Test Example 19)
[2] = system: kidney bean stem rot fungus (Sclerotinia sclerotiorum); test: kidney bean stem rot control test, foliar spray before inoculation
[3] = system: cucumber corynespora leaf spot fungus (Corynespora cassicola); test: cucumber corynespora leaf spot control test, foliar spray before inoculation; type: in vivo; conditions: 200 ppm, sprayed one day before inoculation (Test Example 18)
[4] = system: wheat leaf blotch fungus (Septoria tritici); test: wheat leaf blotch control test, foliar spray after inoculation; type: in vivo; conditions: 200 ppm, sprayed 3 days after inoculation (Test Example 13)
[5] = system: soybean rust fungus (Phakopsora pachyrhizi); test: soybean rust control test, foliar spray before inoculation; type: in vivo; conditions: 200 ppm, sprayed 2 days before inoculation (Test Example 15)
[6] = system: barley net blotch fungus (Pyrenophora teres); test: barley net blotch control test, foliar spray before inoculation; type: in vivo
[7] = system: barley scald fungus (Rhynchosporium secalis); test: barley scald control test, foliar spray before inoculation; type: in vivo; conditions: 200 ppm, sprayed 2 days before inoculation (Test Example 16)
[8] = system: wheat leaf blotch fungus (Septoria tritici); test: wheat leaf blotch control test, foliar spray 4 days before inoculation; type: in vivo
[9] = 500 ppm, kidney bean (Test Example 9)
[10] = 200 ppm, kidney bean (Test Example 10)
[11] = 200 ppm, sprayed 2 days before inoculation (Test Example 8)
[12] = 500 ppm, sprayed 4 days before inoculation (Test Example 11)
[13] = 500 ppm, sprayed 2 days before inoculation (Test Example 7)
[14] = 200 ppm, sprayed 4 days before inoculation (Test Example 12)

Measured: area of lesion spots on the treated plant relative to that on an untreated plant

COc1ccc(-c2cccc(OCc3c(C)cccc3-n3nnn(C)c3=O)n2)cc1 [compound 4]
≤ 30%: [1] | [2]; [9] | [3] | [4]

Cc1ccc(-c2cccc(OCc3c(C)cccc3-n3nnn(C)c3=O)n2)cc1 [compound 6]
≤ 30%: [2]; [10] | [3] | [4]

CSc1ccc(-c2cccc(OCc3c(C)cccc3-n3nnn(C)c3=O)n2)cc1 [compound 12]
≤ 30%: [5] | [6]; [11]

Cc1ccc(-c2cccc(OCc3c(C)cccc3-n3nnn(C)c3=O)c2)cc1 [compound 46]
≤ 30%: [1] | [7] | [2]; [9] | [3] | [4]

Cc1cccc(-n2nnn(C)c2=O)c1COc1cccc(-c2ccc(OC(F)(F)F)cc2)c1 [compound 48]
≤ 30%: [1] | [7] | [2]; [10] | [3] | [4]

COc1cccc(-c2cccc(OCc3c(C)cccc3-n3nnn(C)c3=O)c2)c1 [compound 50]
≤ 30%: [1] | [8]; [12] | [7] | [2]; [9] | [6]; [13] | [3]

Cc1cccc(-n2nnn(C)c2=O)c1COc1cccc(-c2cccc(Cl)c2)c1 [compound 55]
≤ 30%: [1] | [2]; [9] | [3] | [4]

COc1ccc(-c2cccc(OCc3c(C)cccc3-n3nnn(C)c3=O)c2)cn1 [compound 57]
≤ 30%: [5] | [6]; [13]

COc1ccc(-c2cccc(OCc3c(OC)cccc3-n3nnn(C)c3=O)n2)cc1 [compound 69]
≤ 30%: [5] | [2]; [10]

CC(=O)c1ccc(-c2cccc(OCc3c(C)cccc3-n3nnn(C)c3=O)n2)cc1 [compound 104]
≤ 30%: [5] | [8]; [14] | [7] | [6]; [13]

Cc1ccc(OCc2c(C)cccc2-n2nnn(C)c2=O)cc1-c1ccc(F)cc1 [compound 119]
≤ 30%: [5] | [4]

COc1ccc(OCc2c(C)cccc2-n2nnn(C)c2=O)cc1-c1ccc(Cl)cc1 [compound 137]
≤ 30%: [5] | [8]; [12] | [4]

COc1ccc(-c2cc(OCc3c(C)cccc3-n3nnn(C)c3=O)ccc2OC)cc1 [compound 140]
≤ 30%: [5]

COc1ccc(OCc2c(C)cccc2-n2nnn(C)c2=O)cc1-c1ccc(F)cc1 [compound 141]
≤ 30%: [5] | [8]; [12] | [7] | [4]

Cc1cc(OCc2c(C)cccc2-n2nnn(C)c2=O)cc(-c2ccccc2)c1 [compound 143]
≤ 30%: [5] | [1] | [8]; [14] | [7]

Cc1cccc(-n2nnn(C)c2=O)c1COc1cccc(N2CCOCC2)n1 [compound 161, 1-methyl-4-[3-methyl-2-(2-morpholin-4-yl-pyridin-6-yloxymethyl)phenyl]-1,4-dihydrotetrazol-5-one]
≤ 30%: [5] | [8]; [12] | [7]

COc1ccc(-c2cccc(OCc3c(C)cccc3-n3nnn(C)c3=O)n2)c(OC)n1 [compound 170]
≤ 30%: [5] | [1]

COc1cc(Cl)ccc1-c1cccc(OCc2c(C)cccc2-n2nnn(C)c2=O)n1 [compound 172]
≤ 30%: [5] | [1] | [4]

Cc1cccc(-n2nnn(C)c2=O)c1COc1cccc(-c2ccsc2)n1 [compound 174]
≤ 30%: [1] | [2]; [10] | [3] | [4]

COc1ccc(-c2cccc(OCc3c(C)cccc3-n3nnn(C)c3=O)n2)c(OC)c1 [compound 178]
≤ 30%: [5] | [1] | [2]; [10]

COc1ccc(-c2cccc(OCc3c(C)cccc3-n3nnn(C)c3=O)c2)c(OC)n1 [compound 179]
≤ 30%: [5]

Cc1cccc(-n2nnn(C)c2=O)c1COc1cccc(-n2cccn2)n1 [compound 206, 1-methyl-4-{3-methyl-2-[2-(1H-pyrazol-1-yl)-pyridin-6-yloxymethyl]-phenyl}-1,4-dihydrotetrazol-5-one]
≤ 30%: [8]; [14] | [7] | [2]; [10] | [6]; [11] | [3] | [4]

Cc1cccc(-n2nnn(C)c2=O)c1COc1cccc(-c2cnn(C)c2)c1 [compound 210]
≤ 30%: [1] | [8]; [14] | [7] | [2]; [10] | [6]; [11] | [3] | [4]
